Measured data: PubChem BioAssay AID720505 (Drosophila RNAi Screening Center, 2013)
Assay: 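Genes needed for store-operated calcium entry in fly cells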 (primary screen). Cell system: Drosophila S2R+ cells. Knock-down reagent: long dsRNA against Drosophila genes. Conditions: thapsigargin (2 µM) in calcium-free buffer to empty internal stores, then 2 mM calcium added back. Measurement: 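Fluo-4 signal in 384-well plates read on a FLIPR after thapsigargin (2 µM, calcium-free) store depletion and 2 mM calcium add-back; unnormalised mean endpoint per well; screen run twice, selected wells retested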. Reading the numbers: calcium signal and retest calcium signal: higher = more calcium entry after store depletion. Hit rule: 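About 1500 genes called as lowering calcium entry, by varying amounts, judged against per-plate control wells with STIM1 as positive and Rho1 as negative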. Meaning of the calls: active = called as lowering calcium entry; inactive = not called.
The screen tested about 20,000 reagents; this is an unselected part of those with a known target gene and a result. Of all reagents, about 2,100 (10%) are marked active. 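Raw plate signals without normalisation; calls rest on control-based scores that were not deposited; replicate 2 separates called from uncalled poorly.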 Names joined by + are all predicted targets of the reagent. No sequences are given here. Not stated in the record: the amount of reagent, the time to read-out.

After knock-down of OtopLa [DRSC17787], the screen gave calcium signal, replicate 1 = 100; calcium signal, replicate 2 = 77.8; retest calcium signal, replicate 1 = 8255; retest calcium signal, replicate 2 = 141; inactive.
Knock-down of OtopLa [DRSC18133] gave: calcium signal, replicate 1 = 190; calcium signal, replicate 2 = 88.9; inactive.
OtopLa [DRSC23226] gave calcium signal, replicate 1 = 124; calcium signal, replicate 2 = 150; inactive.
Lipt1 [DRSC05600] showed calcium signal, replicate 1 = 45.4; calcium signal, replicate 2 = 106; active.
CG12206 [DRSC17828] gave calcium signal, replicate 1 = 128; calcium signal, replicate 2 = 123; inactive.
With knock-down of CG15818 [DRSC02505], the record shows calcium signal, replicate 1 = 153; calcium signal, replicate 2 = 174; inactive.
For Dd [DRSC20539], the values are calcium signal, replicate 1 = 219; calcium signal, replicate 2 = 164; inactive.
IscU [DRSC16572] showed calcium signal, replicate 1 = 119; calcium signal, replicate 2 = 162; inactive.
Marcal1 [DRSC02718] scored calcium signal, replicate 1 = 147; calcium signal, replicate 2 = 112; inactive.

Looked up above:
IscU [DRSC16572], calcium signal, replicate 2 → 162
Entry of OtopLa [DRSC23226] in “calcium signal, replicate 1”: 124

Next results follow:
For CG1983 [DRSC15410], the values are calcium signal, replicate 1 = 118; calcium signal, replicate 2 = 107; inactive.
Knock-down of Vps8 [DRSC09705] came out at: calcium signal, replicate 1 = 104; calcium signal, replicate 2 = 76.3; inactive.
CG13280 [DRSC02253] showed calcium signal, replicate 1 = 64.6; calcium signal, replicate 2 = 92.9; active.
Depletion of CG18477 + CG31780 [DRSC01955] came out at: calcium signal, replicate 1 = 92; calcium signal, replicate 2 = 109; inactive.
CG7568 [DRSC16259] showed calcium signal, replicate 1 = 148; calcium signal, replicate 2 = 135; inactive.
cnc [DRSC14676] showed calcium signal, replicate 1 = 189; calcium signal, replicate 2 = 160; inactive.
With knock-down of cnc [DRSC15289], the record shows calcium signal, replicate 1 = 170; calcium signal, replicate 2 = 275; inactive.
cnc [DRSC15600] showed calcium signal, replicate 1 = 183; calcium signal, replicate 2 = 180; inactive.
Against cnc [DRSC15601] the deposit lists calcium signal, replicate 1 = 190; calcium signal, replicate 2 = 179; inactive.
After knock-down of Grl43a [DRSC06383] the results were calcium signal, replicate 1 = 129; calcium signal, replicate 2 = 164; inactive.
